# From patent US20220257552A1, “METHODS OF PRESCREENING AND TREATING BREAST CANCERS WITH SELECTIVE ANDROGEN RECEPTOR MODULATORS” (priority 2021, published 2022)
# Protein sequences, listed by entry. Tags and fused reporters are not part of them. Residues count along the entry.
# UniProt P10275: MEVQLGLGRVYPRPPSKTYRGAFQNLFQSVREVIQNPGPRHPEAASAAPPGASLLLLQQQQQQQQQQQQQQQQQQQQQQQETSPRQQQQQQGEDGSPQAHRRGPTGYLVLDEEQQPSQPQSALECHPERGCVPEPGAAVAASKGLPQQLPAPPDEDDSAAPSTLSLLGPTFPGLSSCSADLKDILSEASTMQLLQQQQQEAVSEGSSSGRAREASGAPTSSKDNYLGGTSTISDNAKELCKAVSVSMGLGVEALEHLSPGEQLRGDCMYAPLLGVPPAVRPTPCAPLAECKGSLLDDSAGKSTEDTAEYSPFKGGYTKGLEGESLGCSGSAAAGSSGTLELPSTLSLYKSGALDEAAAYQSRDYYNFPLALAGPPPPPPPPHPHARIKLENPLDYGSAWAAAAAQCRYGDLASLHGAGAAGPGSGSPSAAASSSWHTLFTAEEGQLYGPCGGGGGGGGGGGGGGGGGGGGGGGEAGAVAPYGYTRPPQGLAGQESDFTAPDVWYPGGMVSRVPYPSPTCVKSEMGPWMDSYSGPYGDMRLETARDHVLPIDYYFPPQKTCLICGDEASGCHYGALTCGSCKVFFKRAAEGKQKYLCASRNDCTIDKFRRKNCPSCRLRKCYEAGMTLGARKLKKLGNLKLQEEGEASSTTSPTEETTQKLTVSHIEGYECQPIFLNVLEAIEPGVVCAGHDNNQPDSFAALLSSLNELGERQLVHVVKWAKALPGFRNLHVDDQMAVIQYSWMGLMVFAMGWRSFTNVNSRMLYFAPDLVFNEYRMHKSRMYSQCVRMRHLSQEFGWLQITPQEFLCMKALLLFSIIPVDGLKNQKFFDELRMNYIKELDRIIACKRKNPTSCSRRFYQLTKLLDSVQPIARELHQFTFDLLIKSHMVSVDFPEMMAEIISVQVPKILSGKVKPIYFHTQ
# UniProt Q15788, residues 2-1441: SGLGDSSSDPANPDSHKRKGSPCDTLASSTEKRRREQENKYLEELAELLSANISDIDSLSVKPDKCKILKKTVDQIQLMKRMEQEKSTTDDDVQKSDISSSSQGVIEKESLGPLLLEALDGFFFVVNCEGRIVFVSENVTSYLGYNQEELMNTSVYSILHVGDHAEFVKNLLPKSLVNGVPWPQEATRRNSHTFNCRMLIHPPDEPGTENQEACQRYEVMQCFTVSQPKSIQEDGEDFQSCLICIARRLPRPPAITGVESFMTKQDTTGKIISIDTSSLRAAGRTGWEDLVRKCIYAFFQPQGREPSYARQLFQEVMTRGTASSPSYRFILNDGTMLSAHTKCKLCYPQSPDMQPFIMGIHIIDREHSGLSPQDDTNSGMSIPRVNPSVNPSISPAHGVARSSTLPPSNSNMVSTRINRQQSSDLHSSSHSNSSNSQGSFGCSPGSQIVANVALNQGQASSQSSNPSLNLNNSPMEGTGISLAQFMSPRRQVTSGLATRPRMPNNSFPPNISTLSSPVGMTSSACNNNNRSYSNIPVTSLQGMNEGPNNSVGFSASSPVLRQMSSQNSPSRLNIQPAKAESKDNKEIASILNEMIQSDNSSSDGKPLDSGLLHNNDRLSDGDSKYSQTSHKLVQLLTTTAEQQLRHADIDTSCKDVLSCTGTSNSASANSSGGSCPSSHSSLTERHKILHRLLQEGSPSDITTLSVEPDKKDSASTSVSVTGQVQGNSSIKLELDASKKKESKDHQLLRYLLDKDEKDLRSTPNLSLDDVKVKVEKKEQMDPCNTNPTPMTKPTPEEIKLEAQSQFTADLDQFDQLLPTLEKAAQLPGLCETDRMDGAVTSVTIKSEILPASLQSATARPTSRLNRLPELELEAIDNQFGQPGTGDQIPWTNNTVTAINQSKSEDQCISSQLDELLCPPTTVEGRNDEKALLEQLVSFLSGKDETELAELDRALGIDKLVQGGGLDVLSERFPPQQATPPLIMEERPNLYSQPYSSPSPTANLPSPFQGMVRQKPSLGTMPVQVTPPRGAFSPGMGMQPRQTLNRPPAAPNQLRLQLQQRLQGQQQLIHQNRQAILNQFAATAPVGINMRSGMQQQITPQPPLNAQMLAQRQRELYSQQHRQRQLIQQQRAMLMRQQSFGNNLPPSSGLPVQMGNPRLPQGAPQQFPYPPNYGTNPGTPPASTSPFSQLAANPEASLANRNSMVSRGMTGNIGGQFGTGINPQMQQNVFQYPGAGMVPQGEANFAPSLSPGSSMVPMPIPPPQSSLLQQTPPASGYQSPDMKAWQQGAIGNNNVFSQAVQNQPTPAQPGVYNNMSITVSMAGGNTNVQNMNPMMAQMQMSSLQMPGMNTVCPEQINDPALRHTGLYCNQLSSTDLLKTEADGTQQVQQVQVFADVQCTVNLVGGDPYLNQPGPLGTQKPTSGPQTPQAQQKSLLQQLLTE
# No constants are given. Whether binding was seen depends on the method and setting. Binding seen in cells or lysates may run through a third protein. Some results given as binding are weak or reduced against the parent protein; the word gives no strength.
# Tests used:
# [1] = target: androgen receptor (human (patient-derived xenograft HCI-13)) (UniProt P10275); test: co-immunoprecipitation with AR antibody from HCI-13 tumor extracts (vehicle or Formula IX), Western blot for SRC-1
# [2] = target: androgen receptor (human (patient-derived xenograft HCI-13)) (UniProt P10275); test: co-immunoprecipitation with AR antibody from HCI-13 tumor extracts, Western blot for SRC-1
substance,measurement,setting,value
steroid receptor coactivator-1 (from UniProt Q15788 2-1441),binding,[1],binds
same,binding,[2],binds
